# Measured values as given in paper PMC11729909.
# Target: ATR (endogenous) [human (endogenous in HEK293T and H1975)]
# Assay: co-immunoprecipitation (IP: FLAG) and immunoblotting
# Conditions: HEK293T cells; parent: 1
row,ratio to parent,Substance
1,0.66,"FLAG-tagged FOXP1 (wild type, full length) mutant R514H [human] / ATR (endogenous) [human (endogenous in HEK293T and H1975)] chain 1 R514H"
2,0.56,"FLAG-tagged FOXP1 (wild type, full length) mutant R465G [human] / ATR (endogenous) [human (endogenous in HEK293T and H1975)] chain 1 R465G"
3,0.72,"FLAG-tagged FOXP1 (wild type, full length) mutant R514C [human] / ATR (endogenous) [human (endogenous in HEK293T and H1975)] chain 1 R514C"
4,0.3,"FLAG-tagged FOXP1 (wild type, full length) mutant R465T [human] / ATR (endogenous) [human (endogenous in HEK293T and H1975)] chain 1 R465T"
